Laboratory results from patent publication US20040001842A1.
These are yes or no findings as the source states them, for the method shown. Some entries that bind do so weakly or less than the wild type. Sequences can lack the tags named with a protein.

Chains of the proteins cited; added tags and fusions are not shown. Lines headed by an entry give the natural chain unless they say otherwise; changes in a name come on top.
UniProt P01350: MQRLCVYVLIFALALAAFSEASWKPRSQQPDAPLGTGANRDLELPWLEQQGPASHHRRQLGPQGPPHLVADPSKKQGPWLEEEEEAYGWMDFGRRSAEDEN

Key:
[1] = biological target: T1, CCK-B/gastrin receptor on AR42J cells (rat pancreatic adenocarcinoma) (rat) (UniProt P30553); assay: confocal fluorescence microscopy of AR42J cells
T1 sequence (looked up): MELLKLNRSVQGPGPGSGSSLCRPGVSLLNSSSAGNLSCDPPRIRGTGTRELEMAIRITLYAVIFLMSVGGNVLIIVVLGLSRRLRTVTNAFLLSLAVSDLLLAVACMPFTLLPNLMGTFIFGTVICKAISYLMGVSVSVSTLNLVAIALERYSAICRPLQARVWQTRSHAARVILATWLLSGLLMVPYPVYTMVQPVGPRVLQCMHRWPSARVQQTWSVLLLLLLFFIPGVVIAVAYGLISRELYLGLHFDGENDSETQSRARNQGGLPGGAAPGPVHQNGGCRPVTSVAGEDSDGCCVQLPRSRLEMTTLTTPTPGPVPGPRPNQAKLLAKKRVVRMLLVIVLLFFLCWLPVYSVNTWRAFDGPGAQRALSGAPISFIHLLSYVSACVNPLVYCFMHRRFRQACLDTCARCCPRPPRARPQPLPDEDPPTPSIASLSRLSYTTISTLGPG

[2] = biological target: T2, human CCK-B/gastrin receptor (human) (UniProt P32239); assay: confocal fluorescence microscopy of HepG2, C170HM2 and transfected NIH3T3 cells
T2 sequence (looked up): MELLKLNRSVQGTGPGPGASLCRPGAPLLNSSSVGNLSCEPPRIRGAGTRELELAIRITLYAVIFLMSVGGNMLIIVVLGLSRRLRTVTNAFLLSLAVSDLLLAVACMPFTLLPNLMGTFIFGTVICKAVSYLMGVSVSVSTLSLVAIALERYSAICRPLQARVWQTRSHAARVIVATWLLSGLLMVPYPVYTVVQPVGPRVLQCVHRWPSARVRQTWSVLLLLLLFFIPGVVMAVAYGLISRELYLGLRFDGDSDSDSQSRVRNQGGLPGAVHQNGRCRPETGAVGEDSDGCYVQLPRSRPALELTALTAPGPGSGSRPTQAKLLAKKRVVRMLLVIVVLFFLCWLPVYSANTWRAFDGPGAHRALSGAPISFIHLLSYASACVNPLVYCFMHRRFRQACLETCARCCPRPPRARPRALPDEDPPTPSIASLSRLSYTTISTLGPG

[3] = biological target: T1, CCK-B/gastrin receptor on AR42J cells (rat pancreatic adenocarcinoma) (rat); assay: confocal microscopy of AR42J cells

Measured: binding

AYGWMDF (ligand, UniProt P01350 86-92, looked up, rhodal green label) [rhodal green labeled heptagastrin]
binds: all assays above
